In the supplement of paper PMC12889115:
This is one part of the list. These are raw signals, not scaled to a control.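 First-pass screen: polymyxin B was added at a level that permeabilizes the Salmonella outer membrane while sparing the inner membrane. DMSO wells, with and without polymyxin B, defined maximum growth. Because plates differed from one another, each plate's data were ranked separately and the compounds with the lowest OD600 were carried forward as hits.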

System: Salmonella enterica serovar Typhimurium SL1344
Assay: bacterial growth OD600 after 18 h with compound and polymyxin B; higher = more bacterial growth (less inhibition)
Conditions: 50 µM, Mueller-Hinton broth

| SMILES | bacterial growth OD600 (polymyxin B 0.75 µg/mL) | bacterial growth OD600 (polymyxin B 1 µg/mL) |
| --- | --- | --- |
| CCn1c(-c2cccnc2)nc2cc(NC(=O)COC)cc(C(=O)N(C)Cc3ccc(C)cc3)c21 | 0.846 |  |
| COc1ccc(CN2CCN(Cc3ccccc3F)C(CCO)C2)cc1OC (configuration not stated) |  | 0.882 |
| Oc1ccc(CN2CCCC(c3ccnc(SCCN4CCCC4)n3)C2)cc1 (configuration not stated) | 0.777 |  |
| COCCCN1C(=O)CC(CC(=O)N2CC3(C)CC2CC(C)(C)C3)(c2ccccc2Cl)C1=O (configuration not stated) | 0 |  |
| Cc1nc(CCNC(=O)c2coc(CN3CCN(c4ccccc4F)CC3)n2)sc1C |  | 0.881 |
| Cc1nc(CCNC(=O)C2CCC(=O)N(CCCN3CCOCC3)C2)sc1C (configuration not stated) |  | 0.935 |
| CN(Cc1ccccc1)C1(CNCc2nccn2C)Cc2ccccc2C1 | 0.68 |  |
| COC1CCN(Cc2cn(Cc3ccccc3)nc2-c2cc3ccccc3o2)CC1 |  | 0.582 |
| COc1cccc(N2C(=O)CN(C(=O)c3ccccc3C(F)(F)F)CC2C)c1 (configuration not stated) | 0.902 |  |
| C=CCNC(=O)C1CCCN(C2CCN(Cc3ccccc3)CC2)C1 (configuration not stated) | 0.803 |  |
| O[C@H]1CCN(c2ccc(-c3nc(Cc4ccccc4)no3)cn2)C1 | 0.898 |  |
| COc1ccc(CC2(CCC(=O)NCC(C)c3ccccc3)CCC(=O)N2)c2ccccc12 (configuration not stated) | 0.822 |  |
| CN(CC1CCCN(CCc2ccccc2F)C1)C(=O)c1cccc(F)c1 (configuration not stated) |  | 0.874 |
| CCOc1cc(CN2CCC3(CC2)CC3C(=O)NCc2cccc(C(F)(F)F)c2)ccc1O (configuration not stated) | 0.842 |  |
| COc1ccc(-c2nn(-c3ccccc3F)cc2CN2CCSCC2)cc1 |  | 0.606 |
| O=C(NCc1ccccc1Cl)c1cccc(OC2CCN(C(=O)C3CC3)CC2)c1 |  | 0.724 |

| SMILES | bacterial growth OD600 (polymyxin B 0.75 µg/mL) | bacterial growth OD600 (polymyxin B 1 µg/mL) |
| --- | --- | --- |
| Cc1nc2ccccc2n1Cc1cc(C(=O)N(C)Cc2ccon2)no1 |  | 1.12 |
| Cn1nccc1C(=O)NCc1cccnc1N1CCOCC1 |  | 0.976 |
| CO[C@H]1[C@H](NC(=O)C(C)C)c2ccccc2C12CCN(C(=O)c1ccc(C)s1)CC2 | 0.829 |  |
| COc1ccc(CN2CCCC(CO)(Cc3ccc(F)cc3)C2)cc1 (configuration not stated) | 0.736 |  |
| CCCCC1CN(CCC(=O)NCCCOc2cccnc2)Cc2ccccc2O1 (configuration not stated) | 0.824 |  |
| O=C(CCn1cncn1)N1CCCC(CNC(=O)C2(c3ccc(Cl)cc3)CC2)C1 (configuration not stated) |  | 0.796 |
| CC(C)CN(C)CC1CCCN(CCc2ccc(F)cc2)C1 (configuration not stated) |  | 0.863 |
| COc1ccccc1C(=O)N[C@@H]1c2ccccc2C2(CCN(Cc3cc(F)cc(F)c3)CC2)[C@H]1OC | 0.233 |  |
| O=C(c1cnc2ccccn2c1=O)N1CCOc2ccc(CN3CCc4ccccc4C3)cc2C1 | 0.762 |  |
| CCc1ccc(CN2CCCC(CCC(=O)Nc3ccc(OC)cc3C)C2)o1 (configuration not stated) |  | 0.892 |
| CC(=O)c1cccc(OCc2cc(C(=O)N3CCCC3c3ccccn3)n[nH]2)c1 (configuration not stated) |  | 0.844 |
| Cc1ccccc1-n1cc(CN(C)Cc2nc(-c3ccccc3)no2)cn1 |  | 0.562 |
| Cc1cc(NCc2cccnc2Oc2ccc(F)c(F)c2)nc(N)n1 | 0.85 |  |
| COc1ccc(N2C(=O)CN(C(=O)c3ccoc3C)CC23CCCC3)cc1 | 0.788 |  |
| COc1cc(C(=O)N2CCCC(Nc3ccc(F)c(F)c3)C2)ccc1C (configuration not stated) |  | 0.572 |
| COCCN1CCC(CN(CC2CCCO2)C(=O)Cc2cc(OC)ccc2OC)CC1 (configuration not stated) |  | 0.89 |

Exported with tabs: 2 of the compounds above.
SMILES	bacterial growth OD600 (polymyxin B 0.75 µg/mL)	bacterial growth OD600 (polymyxin B 1 µg/mL)
COc1ccc(CN2CCCC(CO)(Cc3ccc(F)cc3)C2)cc1 (configuration not stated)	0.736	
CCCCC1CN(CCC(=O)NCCCOc2cccnc2)Cc2ccccc2O1 (configuration not stated)	0.824	
